Experimental data published in patent publication US20110166032A1, “Design and Use of Sortilin Specific Molecular Imaging Ligands” (H. LUNDBECK A/S, priority 2008, published 2011).
At least one structure is not confirmed: it was looked up by name or label, or the drawing left a doubt. No end group written: not given here.

Target: T1, immobilized sSortilin (Homo sapiens, UniProt Q99523)
T1 construct: His6 (C); made in house; host or cells: CHO-K1
T1 sequence (Q99523 78-755): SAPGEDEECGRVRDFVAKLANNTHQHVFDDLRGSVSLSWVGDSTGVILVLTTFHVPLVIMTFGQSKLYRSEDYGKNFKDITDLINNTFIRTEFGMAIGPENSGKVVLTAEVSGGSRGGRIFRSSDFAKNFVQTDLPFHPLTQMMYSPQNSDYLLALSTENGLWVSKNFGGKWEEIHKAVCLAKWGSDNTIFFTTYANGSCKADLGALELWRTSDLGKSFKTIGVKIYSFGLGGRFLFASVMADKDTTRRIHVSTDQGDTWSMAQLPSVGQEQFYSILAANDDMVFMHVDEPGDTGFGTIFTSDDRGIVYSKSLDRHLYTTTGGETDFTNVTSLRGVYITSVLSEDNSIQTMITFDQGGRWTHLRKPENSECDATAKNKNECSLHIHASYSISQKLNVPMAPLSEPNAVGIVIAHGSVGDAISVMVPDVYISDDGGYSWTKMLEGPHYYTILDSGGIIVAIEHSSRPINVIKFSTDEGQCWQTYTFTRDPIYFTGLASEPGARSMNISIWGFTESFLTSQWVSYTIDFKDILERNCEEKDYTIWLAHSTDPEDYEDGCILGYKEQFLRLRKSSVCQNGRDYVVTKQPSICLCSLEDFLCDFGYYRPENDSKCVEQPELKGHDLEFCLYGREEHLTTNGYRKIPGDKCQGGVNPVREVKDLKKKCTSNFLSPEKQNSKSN
Test: Surface plasmon resonance analysis of affinity of NGFpro and icosapeptides for immobilized sSortilin
Type: binding
Conditions: BIAcore 3000, 20° C.

Substance: ITVDPRLFKKRRLRSPRVLF-NH2 [peptide-4]
- dissociation constant (Ka) for immobilized sSortilin: ~5 µM
